Results taken from US6358517B1, “Cosmetic compositions containing resveratrol and retinoids” (Unilever Home & Personal Care USA, division of Conopco, priority 1999, dated 2002).
For at least one compound, name, drawing or mass did not settle the structure.

Assays:
[1] = test system: Cellular Retinoic Acid Binding Protein 2 (CRABP-2); assay: CRABP-2 expression in pig skin organ culture (epidermis), Western blot; type: cell-based; conditions: alone, summary of Table 1
Protocol: 7 mm pig skin biopsies were taken, plated in serum free DMEM, and incubated for 2 days. The media was then switched to phenol-red free media. The biopsies were topically treated with resveratrol for 24 hrs in 5 μl ethanol per biopsy. After 24 hours, retinoids were topically applied to the biopsies. The treated biopsies were incubated for 4 days thereafter. After treatment phase, the biopsies were rinsed in 1×phosphate-buffer twice and then frozen at −20° C. for future use. The epidermis and dermis was separated by freezing and scraping off the epidermis. […]
To measure the levels of CRABP-2 in the fibroblast and pig skin extracts prepared as described above, the cell supernatant was re-suspended in 4×sample buffer and 10% BME, boiled for 5 minutes and used for western blotting. […] The bands in the film were quantified by densitometric scanning, the data from triplicate samples were calculated as % of control and expressed in the following tables as % increase over control (with control as 100%) +/− standard deviation.

[2] = test system: Cellular Retinoic Acid Binding Protein 2 (CRABP-2); assay: CRABP-2 expression in human adult skin fibroblasts, Western blot; type: cell-based; conditions: Table 2B; 1 μM alone
Protocol: Human adult fibroblasts obtained from sun-protected inner arm of the […] were used. Cells were grown in 1:1 DMEM/Hams F12 media containing 10% FBS, maintained at 37° C. in a 5% CO2 atmosphere under normal atmospheric oxygen tension. Third passage adult fibroblasts were grown in DMEM media with 10% FBS in 12-well plates at a seeding density of 40,000 cells/ml/well. The cells at 80% confluence were rinsed in serum free and phenol red free (PRF) DMEM media twice. Cells were pretreated with resveratrol for 4 hours was conducted and then dosed with retinoids and incubated for a further 48 hours. After the incubation, the wells were washed twice with 1×PBS and the cell monolayer was harvested in 100 μl cell lysis buffer (contained 1×PBS, 1% TritonX, 0.5% sodium deoxycholate, 0.1% SDS containing protease inhibitor (10 mg/ml PMSF in isopropanol, 10 μl/ml). The suspension was spun at 14000 rpm for 10 minutes, the supernatant collected and an aliquot of this supernatant was used for protein quantification. Protein concentration was determined using Pierce protein kit. The remainder of 1 00ul supernatant (cell lysate) was denatured in a mixture of 40 μl sample buffer (NOVEX) and 0.5% Beta mercaptoethanol (BME) and by boiling the sample for 5 minutes.
Within the cells, retinol and retinoic acid are bound to specific cellular binding proteins. […]

Structure (SMILES)	effects on CRABP-2 expression (in words) [1]	CRABP-2 production [2]
CC1=C(/C=C/C(C)=C/C=C/C(C)=C/C(=O)O)C(C)(C)CCC1 [Retinoic acid]	significantly higher stimulation	
CCCCC/C=C\C/C=C\CCCCCCCC(=O)OC/C=C(C)/C=C/C=C(C)/C=C/C1=C(C)CCCC1(C)C [Retinyl Linoleate]		0.64 +/− 0.4.3
